# Test results taken from PubChem BioAssay AID256 (DTP/NCI, 2004).
# The list does not hold the whole screen: it is rich in T/C values a quarter to a half above the control, in often repeated tests (any T/C) and in doses without a T/C. Further doses and runs are listed elsewhere. T/C: endpoint of the treated group in % of that of the vehicle group. For survival time, the PubChem record calls one and a half times the control and up active, and a quarter to a half above the control has no call in these data; cut-offs in other NCI protocols can differ. Schedule codes are those of the source, taken here to give the interval after Q, in days (D) or hours (H), and the number of doses after X. Some T/C values carry the count of animals alive at the toxicity check (mostly the fifth day); where none is given, no animal had died by that day. Some entries were tested several times; the values are given in rising order. Signs of the kind (2×) say how often a value occurs here.
# Test system: CD2F1 mice, L1210 leukemia ip, survival T/C
# Test: NCI In Vivo Anticancer Drug Screen. Data for tumor model L1210 Leukemia (intraperitoneal) in CD2F1 (CDF1) mice
# Settings: T/C endpoint: mean survival time, higher T/C = longer survival
# Procedure, shortened: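 Each value reflects a quotient of treated over vehicle control outcomes in mice with a transplanted tumor.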
structure (smiles),measurement,setting,value
S=c1nc[nH]c2nc[nH]c12,T/C,"dose: 2.0 mg/kg/injection, schedule: Q03HX024 (ip), vehicle: alkali diluted with water",133 % of control
same,T/C,"dose: 4.0 mg/kg/injection, schedule: Q01DX005 (ip), vehicle: alkali diluted with water",125 % of control
same,T/C,"dose: 4.0 mg/kg/injection, schedule: Q03HX024 (ip), vehicle: alkali diluted with water",143 % of control
same,T/C,"dose: 18.8 mg/kg/injection, schedule: Q01DX009 (ip), vehicle: alkali diluted with saline",127 % of control
same,T/C,"dose: 20.0 mg/kg/injection, schedule: Q01DX005 (ip), vehicle: alkali diluted with saline, evaluated on day 30","107, 113, 114, 115, 122 % of control"
same,T/C,"dose: 20.0 mg/kg/injection, schedule: Q01DX005 (ip), vehicle: alkali diluted with saline, evaluated on day 45",115 % of control
same,T/C,"dose: 20.0 mg/kg/injection, schedule: Q01DX005 (ip), vehicle: alkali diluted with water, evaluated on day 30, list 1 of 2","101, 102 (2×), 103, 104, 105 (2×), 106 (3×), 107, 108 (3×), 109, 110 (2×), 111 (2×), 112, 113 (2×), 114 (2×), 115, 116 (2×), 117 (4×), 118, 119, 120, 120 [5 of 6 alive], 121, 123, 130, 147, 174 % of control"
same,T/C,"dose: 20.0 mg/kg/injection, schedule: Q01DX005 (ip), vehicle: alkali diluted with water, evaluated on day 30, list 2 of 2","101 (2×), 102 (2×), 103, 105 (3×), 106 (2×), 107, 108 (2×), 108 [5 of 6 alive], 109, 110 (2×), 111 (3×), 113 (3×), 114 (2×), 115, 116, 117 (5×), 119 (2×), 120, 121, 122, 123, 139, 164 % of control"
same,T/C,"dose: 20.0 mg/kg/injection, schedule: Q01DX005 (ip), vehicle: alkali diluted with water, evaluated on day 45",108 % of control
same,T/C,"dose: 20.0 mg/kg/injection, schedule: Q01DX005 (ip), vehicle: other, evaluated on day 30, list 1 of 2","89, 100, 104 (2×), 105 (2×), 106 (2×), 107, 108, 109 (3×), 110 (2×), 111 (3×), 112 (2×), 113, 114, 115 (2×), 117 (3×), 119 (2×), 120, 122, 124, 129, 134 % of control"
same,T/C,"dose: 20.0 mg/kg/injection, schedule: Q01DX005 (ip), vehicle: other, evaluated on day 30, list 2 of 2","95, 103, 104 (2×), 105, 106 (2×), 107, 108, 109 (3×), 110 (2×), 111 (3×), 112 (3×), 113 (2×), 114, 115 (2×), 117 (2×), 119 (2×), 120, 121, 123, 125, 130, 134 % of control"
same,T/C,"dose: 20.0 mg/kg/injection, schedule: Q01DX005 (ip), vehicle: other, evaluated on day 35",105 % of control
same,T/C,"dose: 20.0 mg/kg/injection, schedule: Q01DX005 (ip), vehicle: other, evaluated on day 45",109 % of control
same,T/C,"dose: 20.0 mg/kg/injection, schedule: Q01DX005 (ip), vehicle: saline with Tween-80",125 % of control [5 of 6 alive]
same,T/C,"dose: 20.0 mg/kg/injection, schedule: Q01DX005 (ip), vehicle: saline",130 and 144 % of control
same,T/C,"dose: 20.0 mg/kg/injection, schedule: Q01DX009 (ip), vehicle: alkali diluted with saline",129 % of control
same,T/C,"dose: 20.0 mg/kg/injection, schedule: Q01DX009 (ip), vehicle: other",131 % of control [5 of 6 alive]
same,T/C,"dose: 37.5 mg/kg/injection, schedule: Q01DX009 (ip), vehicle: alkali diluted with saline",139 % of control
same,T/C,"dose: 40.0 mg/kg/injection, schedule: Q01DX005 (ip), vehicle: alkali diluted with saline, evaluated on day 30","107, 122, 128, 136, 138 % of control"
same,T/C,"dose: 40.0 mg/kg/injection, schedule: Q01DX005 (ip), vehicle: alkali diluted with saline, evaluated on day 45",134 % of control
same,T/C,"dose: 40.0 mg/kg/injection, schedule: Q01DX005 (ip), vehicle: alkali diluted with water, evaluated on day 30, list 1 of 2","105, 110, 111, 112, 113, 114, 115 (3×), 116, 118 (3×), 119, 120 (2×), 121, 122, 123 (3×), 124, 125, 126, 127 (2×), 128, 128 [5 of 6 alive], 129 [5 of 6 alive], 131, 132 (2×), 133 [5 of 6 alive], 135, 139, 141, 148, 162, 170, 181 % of control"
same,T/C,"dose: 40.0 mg/kg/injection, schedule: Q01DX005 (ip), vehicle: alkali diluted with water, evaluated on day 30, list 2 of 2","102 [5 of 6 alive], 106, 111 (2×), 112, 113 (2×), 114, 115 (2×), 116 (2×), 118 (2×), 119 (2×), 120, 121, 122 (2×), 123 (2×), 124, 125, 126, 127 (3×), 128, 129 [2 of 3 alive], 130, 132 (2×), 133 (2×), 137, 139 [5 of 6 alive], 143, 159, 168, 178 % of control"
same,T/C,"dose: 40.0 mg/kg/injection, schedule: Q01DX005 (ip), vehicle: alkali diluted with water, evaluated on day 45",119 % of control
same,T/C,"dose: 40.0 mg/kg/injection, schedule: Q01DX005 (ip), vehicle: other, evaluated on day 30, list 1 of 2","108, 110 [5 of 6 alive], 111, 112, 113 (2×), 114, 115 (2×), 118 (2×), 119 (2×), 120 (2×), 121 (2×), 122 (2×), 123, 124, 126, 127 (3×), 130, 131, 132, 136, 140, 142, 147, 150, 160 % of control"
same,T/C,"dose: 40.0 mg/kg/injection, schedule: Q01DX005 (ip), vehicle: other, evaluated on day 30, list 2 of 2","107, 109, 111, 112 (2×), 113 (2×), 114 (2×), 115, 117, 118, 119 (2×), 120 (3×), 121, 122 (2×), 123, 124, 125 [5 of 6 alive], 126, 127 (2×), 128, 131, 132 (2×), 136, 142, 144, 147, 153 % of control"
same,T/C,"dose: 40.0 mg/kg/injection, schedule: Q01DX005 (ip), vehicle: other, evaluated on day 35",115 % of control
same,T/C,"dose: 40.0 mg/kg/injection, schedule: Q01DX005 (ip), vehicle: other, evaluated on day 45",143 % of control
same,T/C,"dose: 40.0 mg/kg/injection, schedule: Q01DX005 (ip), vehicle: saline with Tween-80",141 % of control
same,T/C,"dose: 40.0 mg/kg/injection, schedule: Q01DX005 (ip), vehicle: saline",128 % of control
same,T/C,"dose: 40.0 mg/kg/injection, schedule: Q01DX007 (ip), vehicle: saline",128 % of control
same,T/C,"dose: 40.0 mg/kg/injection, schedule: Q01DX009 (ip), vehicle: alkali diluted with saline",130 % of control [5 of 6 alive]
same,T/C,"dose: 40.0 mg/kg/injection, schedule: Q01DX009 (ip), vehicle: alkali diluted with water",127 and 129 % of control
same,T/C,"dose: 40.0 mg/kg/injection, schedule: Q01DX009 (ip), vehicle: saline",130 % of control
same,T/C,"dose: 40.0 mg/kg/injection, schedule: Q04DX002 (ip), vehicle: saline",129 % of control
same,T/C,"dose: 44.0 mg/kg/injection, schedule: Q04DX003 (ip), vehicle: saline",147 % of control
